Percent effect of library compounds

Amino acid sequences for entries named in this document (tags omitted). Residues count along the entry.
UniProt A4I591, 1-473: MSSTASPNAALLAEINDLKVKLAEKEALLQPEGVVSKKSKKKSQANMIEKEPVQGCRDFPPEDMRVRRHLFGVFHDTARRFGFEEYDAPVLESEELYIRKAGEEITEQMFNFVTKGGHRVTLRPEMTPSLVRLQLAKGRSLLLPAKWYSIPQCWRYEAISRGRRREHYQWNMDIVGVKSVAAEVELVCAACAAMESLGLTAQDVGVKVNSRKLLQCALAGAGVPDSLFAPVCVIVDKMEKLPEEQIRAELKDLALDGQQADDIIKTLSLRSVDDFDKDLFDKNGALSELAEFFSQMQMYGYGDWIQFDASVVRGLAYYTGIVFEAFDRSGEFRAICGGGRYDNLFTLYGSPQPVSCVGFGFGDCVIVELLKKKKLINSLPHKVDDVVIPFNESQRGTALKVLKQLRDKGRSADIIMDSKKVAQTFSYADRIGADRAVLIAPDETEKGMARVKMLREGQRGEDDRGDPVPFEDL
UniProt Q4DA54, 1-478: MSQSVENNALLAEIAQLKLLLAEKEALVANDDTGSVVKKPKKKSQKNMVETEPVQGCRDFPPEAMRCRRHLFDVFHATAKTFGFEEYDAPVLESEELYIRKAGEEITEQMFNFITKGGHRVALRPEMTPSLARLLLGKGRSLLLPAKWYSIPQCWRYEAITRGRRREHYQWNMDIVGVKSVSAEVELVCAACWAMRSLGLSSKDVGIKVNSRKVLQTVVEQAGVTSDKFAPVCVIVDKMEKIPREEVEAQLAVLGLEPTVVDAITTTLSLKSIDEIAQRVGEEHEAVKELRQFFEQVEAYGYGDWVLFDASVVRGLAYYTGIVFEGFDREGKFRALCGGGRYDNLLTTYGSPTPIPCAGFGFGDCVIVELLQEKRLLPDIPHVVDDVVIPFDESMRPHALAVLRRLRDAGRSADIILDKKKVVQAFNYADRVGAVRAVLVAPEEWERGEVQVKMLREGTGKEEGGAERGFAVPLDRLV

A: 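Enzyme assay of histidyl-tRNA synthetase; the read-out is not stated. Target: Histidine-tRNA ligase, Leishmania infantum (UniProt A4I591). Tested at 30 µM. Higher reads as stronger inhibition (inferred: compounds with an IC50 in retests scored well above the rest). The assay is labelled LdHisRS but filed under L. infantum. Size under these conditions: about 69,000 compounds, about 410 of them at 50% or above in at least one test.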
B: 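Enzyme assay of histidyl-tRNA synthetase; the read-out is not stated. Target: Histidine-tRNA ligase, Trypanosoma cruzi CL Brener (UniProt Q4DA54). Tested at 30 µM. Higher reads as stronger inhibition (inferred: compounds with an IC50 in retests scored well above the rest). Of about 69,000 compounds tested this way, about 31 (0.045%) reached 50% or more in at least one test.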

The filed quantity is “Percent Effect” (%).
How 0% and 100% were set is not recorded. Most values in the screen are low, and negative values occur.
This is an unselected part of the compounds tested.

{"smiles": "Cc1ccc(CN2CCc3ncnc(-c4cccnc4)c3CC2)o1", "A": 11.32, "B": 0.5405}
{"smiles": "Cc1noc(C)c1CN(Cc1ccccc1)C(C)CN1CCOCC1", "stereo": "centres undefined", "A": 10.26, "B": 3.784}
{"smiles": "CCn1nc(C(=O)N2CCNCC2C(=O)Nc2ccc(C)nc2)cc1C", "stereo": "centres undefined", "A": 5.128, "B": 7.027}
{"smiles": "CC(C)OCCC(=O)N1CCN(CC(O)c2ccccc2)CC1", "stereo": "centres undefined", "A": -2.703, "B": 8.333}
{"smiles": "CC(CNC(=O)Nc1ccc(F)cc1Br)N1CCOCC1", "stereo": "centres undefined", "A": -62.35, "B": 4.933}
{"smiles": "CN(C)C(=O)c1ccc2ccc(N3CCN(CC4CC4)CC3)n2c1", "A": 34.62, "B": 30.1}
{"smiles": "CN(Cc1nnc(C2CC2)n1C)S(=O)(=O)c1ccc(F)c(C#N)c1", "A": 10.53, "B": 7.317}
{"smiles": "Cc1cn2c(n1)CCC(NC(=O)c1csc(C(C)C)n1)C2", "stereo": "centres undefined", "A": 11.5, "B": 4.956}
{"smiles": "CC(CCCC(C)(C)O)Nc1ccc(-c2nccn2C)nn1", "stereo": "centres undefined", "A": 5, "B": 6.494}
{"smiles": "CCCc1nc(NCCc2ccccc2)c2c(n1)c(C)nn2CC", "A": 15.05, "B": 13.99}
{"smiles": "Cc1nc2c(C)cccc2cc1C(=O)N1CCC2(CC1)NCCNC2=O", "A": 27.71, "B": 1.22}
{"smiles": "O=C1c2cnc(N3CCOCC3)nc2CN1C1CCS(=O)(=O)C1", "stereo": "centres undefined", "A": 8.85, "B": 1.754}
{"smiles": "Cc1nnc([C@]23COC[C@H]2CN(S(=O)(=O)c2cccnc2)C3)o1", "A": 15.32, "B": 6.63}
{"smiles": "CCC(CO)N(C/C(C)=C/c1ccco1)Cc1ccco1", "stereo": "centres undefined", "A": 13.11, "B": 5.579}
{"smiles": "O=C(CN1CCC(c2cccc(F)c2)C1)NCC(F)(F)F", "stereo": "centres undefined", "A": 10.4, "B": 0.3802}
{"smiles": "O=S(=O)(NC1=NCN(CCc2ccccc2)CN1)c1ccc(F)cc1", "A": 15.79, "B": 0.5848}
{"smiles": "CCC(=O)N1CCc2nc3cc(OC)c(OC)cc3c(=O)n2CC1", "A": 22.22, "B": -0.5405}
{"smiles": "O=C(NCCNc1ncccn1)c1ccc(Br)cc1", "A": 18.42, "B": 5.202}
{"smiles": "Cc1ccc([C@]2(O)CC[C@H]3CN(Cc4cccc(F)c4F)C[C@H]32)nc1", "A": 10.31, "B": 7.778}
{"smiles": "Cc1cc(NC(=O)NCC(C(C)C)N2CCOCC2)n(C)n1", "stereo": "centres undefined", "A": 7.143, "B": 3.488}
{"smiles": "COc1ccc(NC(=O)c2nc3ccccc3n(C)c2=O)cc1OC", "A": 22.47, "B": 8.543}
{"smiles": "Cc1cnc(CN2CCCC(c3cc(C(F)(F)F)[nH]n3)C2)cn1", "stereo": "centres undefined", "A": 17.57, "B": 3.396}
{"smiles": "Cc1nnsc1CN1CC[C@@](O)(C2CCC2)[C@H](C)C1", "A": 7.843, "B": 1.235}
{"smiles": "CC(C)Nc1cc(N2CCC(n3cc(C4CCCC4)nn3)CC2)ncn1", "A": 20.21, "B": 12.12}
{"smiles": "O=C(NCCO)Nc1ccc(Cl)cc1-n1cccc1", "A": 7.143, "B": 2.632}
{"smiles": "CN(CCc1ccccn1)C(=O)C(O)c1cc(Cl)cc(Cl)c1", "stereo": "centres undefined", "A": 15.66, "B": -6.098}
{"smiles": "CN(CCc1ccncc1)C(=O)C1CSCN1C(=O)C(C)(C)C", "stereo": "centres undefined", "A": 0, "B": 5.051}
{"smiles": "Cc1nccn1CCCNc1ccc(Cl)c(C#N)n1", "A": 13.25, "B": 4.878}
{"smiles": "O=C(Cc1cn2ccsc2n1)N(Cc1ccco1)CC1CCCO1", "stereo": "centres undefined", "A": 16.23, "B": 1.604}
{"smiles": "O=C(NCC(F)(F)F)C(c1cccnc1)N1CCCC1", "stereo": "centres undefined", "A": 17.74, "B": 5.844}
{"smiles": "Cc1nn(C)c(N2CCOCC2)c1CNC(C)c1cccs1", "stereo": "centres undefined", "A": 6.14, "B": 2.89}
{"smiles": "COCCN1C(=O)CCC12CCCN(Cc1ccccc1F)C2", "stereo": "centres undefined", "A": 21.36, "B": 5.825}
{"smiles": "CN(CC(=O)N1CCCC1c1noc(C2CC2)n1)Cc1ccccc1", "stereo": "centres undefined", "A": 1.754, "B": 0.8596}

3 of the entries, repeated:

CN(C)C(=O)c1ccc2ccc(N3CCN(CC4CC4)CC3)n2c1 read A: 34.62%; B: 30.1%.
O=S(=O)(NC1=NCN(CCc2ccccc2)CN1)c1ccc(F)cc1 read A: 15.79%; B: 0.5848%.
O=C(NCC(F)(F)F)C(c1cccnc1)N1CCCC1 (centres undefined) read A: 17.74%; B: 5.844%.

Source: ChEMBL document CHEMBL3988442, “University of Dundee, Small-Polar-MMV Screening Library” (2021).